Measured values reported in article PMC5996148.
“And” between values parts separate entries of the source, which are not always exact repeats. Equal entries are not always repeated. This is one part of the list. For some of these results: The exact form of the protein is not confirmed.

Assays:
Test in all cases: protein microarray (ProtoArray v5.0), streptavidin-Alexa Fluor 647
Details in all cases: 3'-biotin; 20 mM Tris (pH 7.5), 5 mM MgCl2, 100 mM KCl, 0.1% Tween-20, A/T-rich and random oligonucleotide blockers; temperature not stated; high values mean tight binding
[1] = test system: LETM2 (human)
[2] = test system: LGALS3 (human)
[3] = test system: LILRB1 (human)
[4] = test system: LIMD1 (human)
[5] = molecular target: T1, LIMS2 (UniProt Q7Z4I7)
T1 sequence: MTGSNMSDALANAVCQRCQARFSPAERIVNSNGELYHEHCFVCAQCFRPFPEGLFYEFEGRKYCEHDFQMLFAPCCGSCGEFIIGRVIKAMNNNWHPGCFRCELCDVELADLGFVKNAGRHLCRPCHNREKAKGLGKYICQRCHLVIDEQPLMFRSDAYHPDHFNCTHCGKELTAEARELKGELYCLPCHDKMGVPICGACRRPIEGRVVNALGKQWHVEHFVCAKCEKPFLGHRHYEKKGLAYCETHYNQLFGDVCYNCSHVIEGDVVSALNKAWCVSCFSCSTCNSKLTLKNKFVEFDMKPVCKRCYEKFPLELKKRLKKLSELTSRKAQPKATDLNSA

[6] = test system: LMX1A (human)
[7] = test system: LOC113386 (human)
[8] = test system: LOC124446 (human)
[9] = test system: LOC144631 (human)
[10] = test system: LOC149267 (human)

For “GGGGACAGGGGTATGGGGAGGGG [G4-3 biotinylated (CtG)]”, the binding signal [1] was -0.334 z-score, the binding signal [2] was -0.324 z-score and -0.331 z-score and the binding signal [3] was -0.322 z-score. For the same sequence, the binding signal [4] was -0.333 z-score, the binding signal [5] was 3.01 z-score and the binding signal [6] was -0.34 z-score. The binding signal [7] was -0.318 z-score, the binding signal [8] was -0.307 z-score and the binding signal [9] was -0.318 z-score. For the same sequence, the binding signal [10] was -0.308 z-score.
